In the supplement of paper PMC6411743:
± gives the standard deviation of the averaged measurements. Some of the results follow.

Chains of the proteins cited; added tags and fusions are not shown. Lines headed by an entry give the natural chain unless they say otherwise; changes in a name come on top.
UniProt Q9HCE1: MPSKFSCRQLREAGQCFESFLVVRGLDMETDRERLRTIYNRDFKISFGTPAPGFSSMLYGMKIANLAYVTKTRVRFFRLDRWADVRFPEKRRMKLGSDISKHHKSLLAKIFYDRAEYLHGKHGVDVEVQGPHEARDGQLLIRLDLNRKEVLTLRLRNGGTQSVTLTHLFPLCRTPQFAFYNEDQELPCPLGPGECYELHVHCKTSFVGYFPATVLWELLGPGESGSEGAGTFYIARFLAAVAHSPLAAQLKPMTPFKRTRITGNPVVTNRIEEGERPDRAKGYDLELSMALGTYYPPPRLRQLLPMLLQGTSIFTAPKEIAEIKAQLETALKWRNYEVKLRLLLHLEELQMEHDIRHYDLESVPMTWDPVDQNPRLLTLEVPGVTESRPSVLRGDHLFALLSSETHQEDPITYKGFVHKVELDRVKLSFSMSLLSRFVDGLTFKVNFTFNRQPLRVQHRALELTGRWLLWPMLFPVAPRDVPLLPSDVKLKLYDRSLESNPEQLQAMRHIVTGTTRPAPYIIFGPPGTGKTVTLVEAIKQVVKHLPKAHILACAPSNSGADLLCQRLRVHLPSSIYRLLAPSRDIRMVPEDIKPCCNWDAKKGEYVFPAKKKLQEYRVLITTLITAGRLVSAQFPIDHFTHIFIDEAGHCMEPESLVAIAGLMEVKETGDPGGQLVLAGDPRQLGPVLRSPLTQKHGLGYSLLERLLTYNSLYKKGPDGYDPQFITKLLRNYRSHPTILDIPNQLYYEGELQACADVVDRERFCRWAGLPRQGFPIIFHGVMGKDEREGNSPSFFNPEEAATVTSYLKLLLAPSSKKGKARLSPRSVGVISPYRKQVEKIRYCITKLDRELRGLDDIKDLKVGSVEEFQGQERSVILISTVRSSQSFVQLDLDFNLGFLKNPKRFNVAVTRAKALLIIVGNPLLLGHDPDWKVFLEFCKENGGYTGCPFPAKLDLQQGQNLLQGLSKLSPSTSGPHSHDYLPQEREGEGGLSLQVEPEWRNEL
UniProt Q9HCS7: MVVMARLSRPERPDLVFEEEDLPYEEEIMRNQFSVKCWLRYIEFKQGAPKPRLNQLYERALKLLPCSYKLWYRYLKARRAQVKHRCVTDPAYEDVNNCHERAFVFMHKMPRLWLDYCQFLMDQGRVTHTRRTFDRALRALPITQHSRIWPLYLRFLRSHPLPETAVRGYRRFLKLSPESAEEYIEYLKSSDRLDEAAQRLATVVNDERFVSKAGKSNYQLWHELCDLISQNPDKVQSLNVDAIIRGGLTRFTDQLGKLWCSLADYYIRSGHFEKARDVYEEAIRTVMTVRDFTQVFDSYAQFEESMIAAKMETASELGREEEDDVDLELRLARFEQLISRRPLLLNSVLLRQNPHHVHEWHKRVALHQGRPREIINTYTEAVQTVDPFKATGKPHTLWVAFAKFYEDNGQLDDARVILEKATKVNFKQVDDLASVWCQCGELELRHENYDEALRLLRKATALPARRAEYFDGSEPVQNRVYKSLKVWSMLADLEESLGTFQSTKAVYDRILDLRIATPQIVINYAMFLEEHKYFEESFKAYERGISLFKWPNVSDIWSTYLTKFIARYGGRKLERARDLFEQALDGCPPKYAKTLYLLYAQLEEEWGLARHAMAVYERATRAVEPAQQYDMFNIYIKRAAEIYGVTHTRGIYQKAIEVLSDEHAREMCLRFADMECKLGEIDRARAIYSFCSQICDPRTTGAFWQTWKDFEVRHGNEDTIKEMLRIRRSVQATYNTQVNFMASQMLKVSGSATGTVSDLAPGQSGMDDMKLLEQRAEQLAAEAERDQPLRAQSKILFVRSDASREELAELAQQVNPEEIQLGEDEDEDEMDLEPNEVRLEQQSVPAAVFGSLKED
UniProt Q9H7Z7: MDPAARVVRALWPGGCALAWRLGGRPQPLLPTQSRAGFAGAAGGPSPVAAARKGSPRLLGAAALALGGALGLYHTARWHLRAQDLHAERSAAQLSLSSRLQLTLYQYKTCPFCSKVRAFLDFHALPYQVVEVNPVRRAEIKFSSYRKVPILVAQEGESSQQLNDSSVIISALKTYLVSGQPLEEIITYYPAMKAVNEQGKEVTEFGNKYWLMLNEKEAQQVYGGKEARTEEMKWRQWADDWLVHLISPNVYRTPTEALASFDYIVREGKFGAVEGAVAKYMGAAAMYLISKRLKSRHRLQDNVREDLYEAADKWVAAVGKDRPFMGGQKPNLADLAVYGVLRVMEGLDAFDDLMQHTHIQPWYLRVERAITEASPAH
UniProt Q9NPL8: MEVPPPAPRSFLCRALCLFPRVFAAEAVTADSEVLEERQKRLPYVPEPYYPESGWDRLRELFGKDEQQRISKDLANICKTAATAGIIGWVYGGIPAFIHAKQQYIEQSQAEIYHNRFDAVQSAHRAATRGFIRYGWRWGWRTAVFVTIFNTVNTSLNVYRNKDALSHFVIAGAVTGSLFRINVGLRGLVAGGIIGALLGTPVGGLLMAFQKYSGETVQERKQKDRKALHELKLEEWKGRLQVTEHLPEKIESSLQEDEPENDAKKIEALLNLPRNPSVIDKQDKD
UniProt Q9H5N1: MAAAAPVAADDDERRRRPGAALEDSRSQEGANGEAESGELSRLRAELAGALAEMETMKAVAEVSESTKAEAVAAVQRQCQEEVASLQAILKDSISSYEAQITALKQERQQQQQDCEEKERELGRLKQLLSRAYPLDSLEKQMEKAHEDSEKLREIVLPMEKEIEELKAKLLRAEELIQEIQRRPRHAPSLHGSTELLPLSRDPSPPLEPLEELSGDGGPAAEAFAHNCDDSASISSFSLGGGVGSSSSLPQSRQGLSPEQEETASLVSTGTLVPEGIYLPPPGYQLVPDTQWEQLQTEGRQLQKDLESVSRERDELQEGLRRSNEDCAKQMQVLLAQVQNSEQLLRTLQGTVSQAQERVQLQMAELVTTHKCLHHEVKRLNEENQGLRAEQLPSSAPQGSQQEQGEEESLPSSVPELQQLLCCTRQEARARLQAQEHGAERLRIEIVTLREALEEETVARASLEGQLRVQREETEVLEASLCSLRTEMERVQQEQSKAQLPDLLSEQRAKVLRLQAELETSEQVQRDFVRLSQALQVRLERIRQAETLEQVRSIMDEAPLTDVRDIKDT
UniProt Q9H267: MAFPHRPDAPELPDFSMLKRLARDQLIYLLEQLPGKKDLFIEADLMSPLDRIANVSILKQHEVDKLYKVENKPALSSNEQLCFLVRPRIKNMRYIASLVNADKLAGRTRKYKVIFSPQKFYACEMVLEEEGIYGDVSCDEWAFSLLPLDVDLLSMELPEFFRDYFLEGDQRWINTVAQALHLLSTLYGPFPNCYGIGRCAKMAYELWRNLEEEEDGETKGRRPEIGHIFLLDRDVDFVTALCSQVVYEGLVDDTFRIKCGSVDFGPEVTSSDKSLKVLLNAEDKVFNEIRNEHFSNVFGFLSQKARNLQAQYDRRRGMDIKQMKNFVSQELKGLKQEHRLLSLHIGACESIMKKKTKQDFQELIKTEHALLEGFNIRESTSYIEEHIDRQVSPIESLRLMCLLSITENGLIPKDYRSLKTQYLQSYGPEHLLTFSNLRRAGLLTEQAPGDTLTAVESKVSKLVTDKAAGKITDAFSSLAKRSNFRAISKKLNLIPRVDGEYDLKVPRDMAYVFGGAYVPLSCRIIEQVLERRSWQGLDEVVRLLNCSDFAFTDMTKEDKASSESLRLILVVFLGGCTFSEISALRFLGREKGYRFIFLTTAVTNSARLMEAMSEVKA
UniProt Q9HB90, whole entry: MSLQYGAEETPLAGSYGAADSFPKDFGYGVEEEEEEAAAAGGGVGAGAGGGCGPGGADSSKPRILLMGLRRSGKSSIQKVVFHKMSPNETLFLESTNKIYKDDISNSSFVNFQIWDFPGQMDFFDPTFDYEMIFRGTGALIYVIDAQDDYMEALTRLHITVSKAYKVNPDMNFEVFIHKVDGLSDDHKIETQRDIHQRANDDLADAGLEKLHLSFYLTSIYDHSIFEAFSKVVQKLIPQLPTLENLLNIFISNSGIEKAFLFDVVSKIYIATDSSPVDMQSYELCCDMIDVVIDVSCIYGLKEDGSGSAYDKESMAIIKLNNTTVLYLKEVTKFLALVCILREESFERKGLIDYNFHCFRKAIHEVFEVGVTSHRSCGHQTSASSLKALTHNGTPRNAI
UniProt Q9H147: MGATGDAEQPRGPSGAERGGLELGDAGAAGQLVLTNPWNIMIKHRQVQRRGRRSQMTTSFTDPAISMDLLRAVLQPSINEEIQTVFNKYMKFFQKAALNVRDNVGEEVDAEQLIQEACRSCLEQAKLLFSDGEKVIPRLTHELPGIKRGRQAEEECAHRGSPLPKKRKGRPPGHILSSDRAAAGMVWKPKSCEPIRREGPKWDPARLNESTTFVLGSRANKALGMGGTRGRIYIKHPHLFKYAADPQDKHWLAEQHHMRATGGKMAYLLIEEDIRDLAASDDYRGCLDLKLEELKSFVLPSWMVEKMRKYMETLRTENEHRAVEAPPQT
UniProt Q9NS86: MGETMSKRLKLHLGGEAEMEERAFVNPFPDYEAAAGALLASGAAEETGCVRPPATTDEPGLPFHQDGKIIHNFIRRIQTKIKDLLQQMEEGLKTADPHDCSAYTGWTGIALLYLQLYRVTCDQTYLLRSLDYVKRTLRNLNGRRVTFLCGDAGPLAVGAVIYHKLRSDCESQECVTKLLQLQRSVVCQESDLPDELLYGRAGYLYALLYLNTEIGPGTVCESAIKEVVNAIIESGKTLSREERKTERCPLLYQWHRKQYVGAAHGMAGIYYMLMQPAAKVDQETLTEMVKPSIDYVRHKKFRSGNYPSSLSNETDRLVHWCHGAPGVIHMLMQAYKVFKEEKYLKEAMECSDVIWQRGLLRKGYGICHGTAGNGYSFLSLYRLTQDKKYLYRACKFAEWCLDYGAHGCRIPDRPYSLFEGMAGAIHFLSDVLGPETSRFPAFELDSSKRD
UniProt Q9NPQ8: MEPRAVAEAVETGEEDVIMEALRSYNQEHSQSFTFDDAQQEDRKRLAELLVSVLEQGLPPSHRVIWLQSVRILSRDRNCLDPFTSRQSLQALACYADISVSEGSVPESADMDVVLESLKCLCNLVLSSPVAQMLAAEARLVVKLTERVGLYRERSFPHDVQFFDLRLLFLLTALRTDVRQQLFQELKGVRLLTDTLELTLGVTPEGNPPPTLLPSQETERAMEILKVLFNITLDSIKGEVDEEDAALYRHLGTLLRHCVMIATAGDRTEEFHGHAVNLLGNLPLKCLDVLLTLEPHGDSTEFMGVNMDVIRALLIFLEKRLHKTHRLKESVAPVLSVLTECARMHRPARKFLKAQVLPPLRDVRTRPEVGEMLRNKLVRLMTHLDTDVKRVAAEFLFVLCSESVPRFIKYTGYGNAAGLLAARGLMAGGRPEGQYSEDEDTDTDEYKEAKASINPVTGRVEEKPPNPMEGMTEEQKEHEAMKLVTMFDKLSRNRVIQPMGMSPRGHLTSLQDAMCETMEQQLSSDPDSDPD
UniProt Q9H7B4: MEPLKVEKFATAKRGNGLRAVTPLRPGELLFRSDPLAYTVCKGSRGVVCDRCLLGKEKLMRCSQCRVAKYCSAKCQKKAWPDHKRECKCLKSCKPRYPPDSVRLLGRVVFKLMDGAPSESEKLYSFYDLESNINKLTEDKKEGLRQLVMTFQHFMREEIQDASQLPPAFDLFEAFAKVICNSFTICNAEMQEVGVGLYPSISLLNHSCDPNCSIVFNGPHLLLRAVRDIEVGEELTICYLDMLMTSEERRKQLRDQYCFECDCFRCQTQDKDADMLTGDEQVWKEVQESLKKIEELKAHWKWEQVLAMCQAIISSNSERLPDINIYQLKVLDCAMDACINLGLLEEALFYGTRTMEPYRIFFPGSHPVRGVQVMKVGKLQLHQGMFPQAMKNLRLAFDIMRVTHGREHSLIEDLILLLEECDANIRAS
UniProt Q9H6R7: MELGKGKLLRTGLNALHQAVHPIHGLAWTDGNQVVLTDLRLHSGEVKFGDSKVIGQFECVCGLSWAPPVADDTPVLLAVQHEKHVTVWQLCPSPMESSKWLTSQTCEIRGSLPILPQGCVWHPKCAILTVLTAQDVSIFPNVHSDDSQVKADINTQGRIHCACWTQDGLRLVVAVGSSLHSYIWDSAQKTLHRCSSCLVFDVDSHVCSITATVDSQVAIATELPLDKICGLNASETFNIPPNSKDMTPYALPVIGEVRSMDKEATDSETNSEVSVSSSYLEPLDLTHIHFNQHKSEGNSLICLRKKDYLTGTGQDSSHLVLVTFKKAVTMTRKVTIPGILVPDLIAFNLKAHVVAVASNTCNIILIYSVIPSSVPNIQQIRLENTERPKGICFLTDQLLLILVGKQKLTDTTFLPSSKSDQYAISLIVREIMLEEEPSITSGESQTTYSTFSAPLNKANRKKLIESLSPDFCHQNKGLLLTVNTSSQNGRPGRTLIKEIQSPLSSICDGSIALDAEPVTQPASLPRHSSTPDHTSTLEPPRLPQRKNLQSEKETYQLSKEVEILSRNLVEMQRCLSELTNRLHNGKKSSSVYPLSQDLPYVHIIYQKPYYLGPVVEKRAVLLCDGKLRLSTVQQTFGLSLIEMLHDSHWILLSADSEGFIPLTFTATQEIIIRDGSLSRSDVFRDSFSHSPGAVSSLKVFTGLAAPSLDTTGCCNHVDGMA

Compound: Nc1nc2c(ncn2[C@@H]2O[C@H](COP(=O)(O)OP(=O)(O)OP(=O)(O)O)[C@@H](O)[C@H]2O)c(=O)[nH]1 [guanosine triphosphate]
Test: NP40-soluble protein abundance relative to vehicle (solubility fold change) (ratio); higher = more soluble protein in presence of GTP
Summary of the method: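 Each value is a fold change relative to the detergent-processed vehicle, calculated per replicate from vsn-normalised intensities. Jurkat crude lysate received eight concentrations (0.1 to 10 mM) for 10 min at room temperature and 3 min at 37 °C, then was solubilised in 0.8% NP40 with benzonase (60 min, 4 °C). The ultracentrifuged supernatant was TMT-labelled and run by LC-MS/MS in three independent experiments.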

Target	NP40-soluble protein abundance (concentration: 0.1mM)	NP40-soluble protein abundance (concentration: 0.5mM)	NP40-soluble protein abundance (concentration: 1mM)	NP40-soluble protein abundance (concentration: 2mM)	NP40-soluble protein abundance (concentration: 4mM)	NP40-soluble protein abundance (concentration: 6mM)	NP40-soluble protein abundance (concentration: 8mM)	NP40-soluble protein abundance (concentration: 10mM)
MOV10 (UniProt Q9HCE1)	1.09 ± 0.09	1.2 ± 0.19	1.1 ± 0.16	1.24 ± 0.28	1.22 ± 0.25	1.21 ± 0.26	1.12 ± 0.19	1.06 ± 0.19
XAB2 (UniProt Q9HCS7)	1.1 ± 0.033	1.1 ± 0.053	1.03 ± 0.068	1.03 ± 0.094	1.05 ± 0.1	0.997 ± 0.11	0.962 ± 0.072	0.938 ± 0.1
UniProt Q9H3H3-2|Q9H3H3-3|Q9H3H3	1.05 ± 0.055	0.938 ± 0.03	0.938 ± 0.08	0.977 ± 0.044	0.959 ± 0.063	0.934 ± 0.057	0.946 ± 0.035	0.923 ± 0.038
UniProt Q9H2D6-5|Q9H2D6 and related entries	1.01 ± 0.12	1.02 ± 0.21	1.04 ± 0.17	1.07 ± 0.19	0.982 ± 0.079	1.05 ± 0.17	1.03 ± 0.071	0.951 ± 0.11
UniProt Q9H7Z7 and related entries	0.9842 ± 0.0065	0.943 ± 0.027	0.916 ± 0.011	0.889 ± 0.029	0.889 ± 0.039	0.875 ± 0.01	0.838 ± 0.046	0.85 ± 0.062
UniProt Q9NPL8	0.984 ± 0.047	1.02 ± 0.066	0.967 ± 0.05	0.946 ± 0.041	0.958 ± 0.015	0.956 ± 0.011	0.932 ± 0.04	0.946 ± 0.031
UniProt Q9H5N1 and related entries	0.956 ± 0.012	0.9 ± 0.088	0.953 ± 0.025	0.966 ± 0.067	0.92 ± 0.054	0.937 ± 0.056	0.927 ± 0.047	0.94 ± 0.026
VPS33B (UniProt Q9H267)	1.04 ± 0.031	1.09 ± 0.072	0.959 ± 0.0098	0.961 ± 0.058	0.964 ± 0.042	0.923 ± 0.048	0.907 ± 0.019	0.868 ± 0.033
RRAGC (UniProt Q9HB90)	1.02 ± 0.031	1.03 ± 0.053	1 ± 0.025	1.02 ± 0.028	0.927 ± 0.041	0.989 ± 0.048	0.993 ± 0.052	0.969 ± 0.032
UniProt Q9H147 and related entries	1.08 ± 0.14	1.03 ± 0.091	1.16 ± 0.13	1.14 ± 0.082	1.14 ± 0.12	1.12 ± 0.073	1.17 ± 0.14	1.15 ± 0.095
LANCL2 (UniProt Q9NS86)	1.03 ± 0.057	1.04 ± 0.047	0.952 ± 0.02	0.957 ± 0.032	0.898 ± 0.042	0.92 ± 0.019	0.881 ± 0.034	0.886 ± 0.046
UniProt Q9H3U1-2	0.977 ± 0.015	0.949 ± 0.028	0.926 ± 0.018	0.9 ± 0.036	0.895 ± 0.023	0.889 ± 0.053	0.894 ± 0.026	0.877 ± 0.038
UniProt Q9NPQ8 and related entries	1.03 ± 0.034	0.996 ± 0.029	1 ± 0.03	0.974 ± 0.057	0.9203 ± 0.0087	0.935 ± 0.036	0.925 ± 0.016	0.912 ± 0.021
UniProt Q9H7B4 and related entries	1.04 ± 0.088	1.03 ± 0.043	0.949 ± 0.063	0.967 ± 0.079	0.977 ± 0.052	0.931 ± 0.058	0.943 ± 0.049	0.942 ± 0.059
UniProt Q9H6R7 and related entries	1.2 ± 0.09	1.15 ± 0.14	1.19 ± 0.081	1.18 ± 0.032	1.07 ± 0.15	1.09 ± 0.13	1.09 ± 0.2	1.11 ± 0.2

In another format: entries from further up.
Target,NP40-soluble protein abundance (concentration: 0.1mM),NP40-soluble protein abundance (concentration: 0.5mM),NP40-soluble protein abundance (concentration: 1mM),NP40-soluble protein abundance (concentration: 2mM),NP40-soluble protein abundance (concentration: 4mM),NP40-soluble protein abundance (concentration: 6mM),NP40-soluble protein abundance (concentration: 8mM),NP40-soluble protein abundance (concentration: 10mM)
UniProt Q9H3U1-2,0.977 ± 0.015,0.949 ± 0.028,0.926 ± 0.018,0.9 ± 0.036,0.895 ± 0.023,0.889 ± 0.053,0.894 ± 0.026,0.877 ± 0.038
UniProt Q9NPQ8 and related entries,1.03 ± 0.034,0.996 ± 0.029,1 ± 0.03,0.974 ± 0.057,0.9203 ± 0.0087,0.935 ± 0.036,0.925 ± 0.016,0.912 ± 0.021
